Results on 37 targets are retold here after the supplement of paper PMC7666118.

Sequences of proteins named here, by UniProt entry; tags and fusion partners are left off. A change or cut given only in a name is not applied to a line headed by its entry.
UniProt O43172: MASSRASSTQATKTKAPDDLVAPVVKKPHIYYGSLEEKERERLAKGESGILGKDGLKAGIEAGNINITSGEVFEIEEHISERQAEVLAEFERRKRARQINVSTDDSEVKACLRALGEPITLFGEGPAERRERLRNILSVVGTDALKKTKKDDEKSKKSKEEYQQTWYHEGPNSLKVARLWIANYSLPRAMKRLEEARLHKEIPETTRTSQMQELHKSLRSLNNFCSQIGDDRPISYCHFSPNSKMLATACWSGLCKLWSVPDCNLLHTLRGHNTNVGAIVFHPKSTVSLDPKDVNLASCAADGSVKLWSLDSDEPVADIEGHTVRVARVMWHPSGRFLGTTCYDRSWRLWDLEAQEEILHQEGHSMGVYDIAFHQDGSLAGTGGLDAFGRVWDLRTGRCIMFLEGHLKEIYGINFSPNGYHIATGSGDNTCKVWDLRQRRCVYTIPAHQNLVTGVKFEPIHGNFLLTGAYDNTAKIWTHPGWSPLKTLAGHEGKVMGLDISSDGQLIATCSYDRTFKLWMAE
UniProt O14966: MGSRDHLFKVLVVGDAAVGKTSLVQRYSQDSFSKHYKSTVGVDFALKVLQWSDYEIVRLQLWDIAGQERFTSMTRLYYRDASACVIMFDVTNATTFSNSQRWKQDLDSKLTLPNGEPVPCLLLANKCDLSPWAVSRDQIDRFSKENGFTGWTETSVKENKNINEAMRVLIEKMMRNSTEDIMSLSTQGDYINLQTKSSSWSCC
UniProt Q9H2M9: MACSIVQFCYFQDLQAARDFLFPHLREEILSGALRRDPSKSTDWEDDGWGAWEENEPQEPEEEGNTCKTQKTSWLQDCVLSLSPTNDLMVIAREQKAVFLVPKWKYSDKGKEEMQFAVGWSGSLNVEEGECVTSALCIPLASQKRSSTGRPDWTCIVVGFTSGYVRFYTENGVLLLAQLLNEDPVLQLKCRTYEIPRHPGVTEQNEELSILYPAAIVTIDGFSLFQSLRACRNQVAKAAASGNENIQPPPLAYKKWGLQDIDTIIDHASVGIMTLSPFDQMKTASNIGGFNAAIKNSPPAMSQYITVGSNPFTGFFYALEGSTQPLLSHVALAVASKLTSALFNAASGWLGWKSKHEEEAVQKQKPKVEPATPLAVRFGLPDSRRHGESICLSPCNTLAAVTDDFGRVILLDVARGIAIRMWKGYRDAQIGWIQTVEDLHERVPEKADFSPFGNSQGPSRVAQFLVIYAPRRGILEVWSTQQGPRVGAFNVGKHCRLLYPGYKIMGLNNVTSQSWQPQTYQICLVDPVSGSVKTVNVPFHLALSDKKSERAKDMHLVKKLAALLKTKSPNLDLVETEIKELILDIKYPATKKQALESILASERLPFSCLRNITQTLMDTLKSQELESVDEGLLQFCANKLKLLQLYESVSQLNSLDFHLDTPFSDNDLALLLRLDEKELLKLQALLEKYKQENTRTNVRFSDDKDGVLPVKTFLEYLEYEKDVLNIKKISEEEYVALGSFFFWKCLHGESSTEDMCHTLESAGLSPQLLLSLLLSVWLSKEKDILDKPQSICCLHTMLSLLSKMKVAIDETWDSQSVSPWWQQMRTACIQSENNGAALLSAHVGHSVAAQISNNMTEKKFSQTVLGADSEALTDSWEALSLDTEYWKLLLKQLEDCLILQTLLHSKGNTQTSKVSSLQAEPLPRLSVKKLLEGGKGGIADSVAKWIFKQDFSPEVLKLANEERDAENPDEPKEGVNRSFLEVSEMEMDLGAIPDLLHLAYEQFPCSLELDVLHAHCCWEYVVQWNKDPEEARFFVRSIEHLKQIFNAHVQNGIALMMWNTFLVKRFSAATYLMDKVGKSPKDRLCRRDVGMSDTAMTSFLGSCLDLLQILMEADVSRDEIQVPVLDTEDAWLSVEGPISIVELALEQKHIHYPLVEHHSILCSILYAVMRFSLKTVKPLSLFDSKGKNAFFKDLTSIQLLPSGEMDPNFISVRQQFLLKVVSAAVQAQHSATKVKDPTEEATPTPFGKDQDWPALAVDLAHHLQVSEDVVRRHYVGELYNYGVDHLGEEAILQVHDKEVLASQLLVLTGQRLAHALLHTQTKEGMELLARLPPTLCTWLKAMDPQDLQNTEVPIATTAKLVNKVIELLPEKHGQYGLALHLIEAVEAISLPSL
UniProt Q15042: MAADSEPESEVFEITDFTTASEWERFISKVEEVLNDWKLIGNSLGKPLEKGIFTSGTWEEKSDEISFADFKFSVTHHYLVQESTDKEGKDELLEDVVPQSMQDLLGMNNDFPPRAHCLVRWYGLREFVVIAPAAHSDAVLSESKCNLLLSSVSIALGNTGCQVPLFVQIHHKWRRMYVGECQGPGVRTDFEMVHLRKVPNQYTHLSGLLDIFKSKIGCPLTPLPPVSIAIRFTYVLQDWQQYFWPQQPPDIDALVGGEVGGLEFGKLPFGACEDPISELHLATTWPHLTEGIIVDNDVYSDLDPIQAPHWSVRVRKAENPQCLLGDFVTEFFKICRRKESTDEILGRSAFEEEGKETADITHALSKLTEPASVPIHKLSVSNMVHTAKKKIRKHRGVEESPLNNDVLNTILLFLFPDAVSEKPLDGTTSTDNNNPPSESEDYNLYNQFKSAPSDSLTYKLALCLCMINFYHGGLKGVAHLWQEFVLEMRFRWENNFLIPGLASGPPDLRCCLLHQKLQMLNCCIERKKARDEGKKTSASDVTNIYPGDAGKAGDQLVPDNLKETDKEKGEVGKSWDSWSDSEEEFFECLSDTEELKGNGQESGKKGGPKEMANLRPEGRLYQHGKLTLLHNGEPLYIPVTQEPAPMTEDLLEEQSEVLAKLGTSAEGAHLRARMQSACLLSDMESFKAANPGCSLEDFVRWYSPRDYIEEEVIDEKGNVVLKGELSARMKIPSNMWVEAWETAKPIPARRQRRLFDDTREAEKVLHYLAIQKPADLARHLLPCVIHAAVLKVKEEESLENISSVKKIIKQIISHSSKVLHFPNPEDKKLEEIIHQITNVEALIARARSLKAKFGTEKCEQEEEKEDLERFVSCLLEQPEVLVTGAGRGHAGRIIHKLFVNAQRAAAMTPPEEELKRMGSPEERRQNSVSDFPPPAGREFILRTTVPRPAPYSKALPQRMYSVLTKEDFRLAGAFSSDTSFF
UniProt Q86YS6: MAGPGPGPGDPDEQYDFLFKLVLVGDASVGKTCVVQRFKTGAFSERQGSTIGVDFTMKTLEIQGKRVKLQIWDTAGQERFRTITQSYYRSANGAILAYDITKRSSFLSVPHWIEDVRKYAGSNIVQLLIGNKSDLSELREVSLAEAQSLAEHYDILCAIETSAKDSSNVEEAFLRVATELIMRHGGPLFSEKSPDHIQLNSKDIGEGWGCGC
UniProt Q15032: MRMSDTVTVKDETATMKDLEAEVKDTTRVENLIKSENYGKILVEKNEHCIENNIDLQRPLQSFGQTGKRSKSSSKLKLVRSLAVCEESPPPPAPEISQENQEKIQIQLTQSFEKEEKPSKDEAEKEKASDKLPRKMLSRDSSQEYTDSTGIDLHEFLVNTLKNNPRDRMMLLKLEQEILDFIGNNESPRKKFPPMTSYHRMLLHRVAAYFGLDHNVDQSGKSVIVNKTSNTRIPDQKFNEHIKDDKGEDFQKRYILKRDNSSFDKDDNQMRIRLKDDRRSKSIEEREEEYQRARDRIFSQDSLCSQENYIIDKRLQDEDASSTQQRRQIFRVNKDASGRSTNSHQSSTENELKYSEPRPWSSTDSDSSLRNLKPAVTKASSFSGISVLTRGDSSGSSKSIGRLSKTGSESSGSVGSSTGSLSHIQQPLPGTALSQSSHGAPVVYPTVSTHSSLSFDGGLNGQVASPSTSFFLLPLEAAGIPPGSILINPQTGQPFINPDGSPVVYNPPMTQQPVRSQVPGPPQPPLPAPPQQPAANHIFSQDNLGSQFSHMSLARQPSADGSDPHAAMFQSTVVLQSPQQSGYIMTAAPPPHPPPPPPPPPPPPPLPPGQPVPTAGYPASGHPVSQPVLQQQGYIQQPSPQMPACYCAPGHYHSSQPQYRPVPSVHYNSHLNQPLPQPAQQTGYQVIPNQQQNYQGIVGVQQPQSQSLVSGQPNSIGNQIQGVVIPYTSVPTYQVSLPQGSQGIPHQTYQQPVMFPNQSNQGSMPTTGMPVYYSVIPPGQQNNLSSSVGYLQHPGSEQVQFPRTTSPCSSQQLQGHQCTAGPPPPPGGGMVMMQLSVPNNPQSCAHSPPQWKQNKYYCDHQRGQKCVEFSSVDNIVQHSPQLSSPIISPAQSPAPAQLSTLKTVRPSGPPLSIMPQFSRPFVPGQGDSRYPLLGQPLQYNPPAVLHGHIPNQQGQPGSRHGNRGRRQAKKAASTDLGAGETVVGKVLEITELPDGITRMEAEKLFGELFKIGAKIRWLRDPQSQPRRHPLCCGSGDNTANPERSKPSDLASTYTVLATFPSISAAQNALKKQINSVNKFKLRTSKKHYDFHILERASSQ
UniProt Q9H939: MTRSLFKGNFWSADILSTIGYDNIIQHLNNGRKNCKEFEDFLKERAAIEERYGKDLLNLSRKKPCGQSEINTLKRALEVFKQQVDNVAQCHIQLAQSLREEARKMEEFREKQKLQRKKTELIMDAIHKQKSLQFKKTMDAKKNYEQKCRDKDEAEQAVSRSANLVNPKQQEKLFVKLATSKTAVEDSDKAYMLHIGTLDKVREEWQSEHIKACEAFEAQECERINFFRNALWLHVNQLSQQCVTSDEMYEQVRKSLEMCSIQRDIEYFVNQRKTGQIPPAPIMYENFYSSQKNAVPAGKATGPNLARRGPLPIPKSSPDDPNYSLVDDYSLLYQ
UniProt Q14289, whole entry, looked up: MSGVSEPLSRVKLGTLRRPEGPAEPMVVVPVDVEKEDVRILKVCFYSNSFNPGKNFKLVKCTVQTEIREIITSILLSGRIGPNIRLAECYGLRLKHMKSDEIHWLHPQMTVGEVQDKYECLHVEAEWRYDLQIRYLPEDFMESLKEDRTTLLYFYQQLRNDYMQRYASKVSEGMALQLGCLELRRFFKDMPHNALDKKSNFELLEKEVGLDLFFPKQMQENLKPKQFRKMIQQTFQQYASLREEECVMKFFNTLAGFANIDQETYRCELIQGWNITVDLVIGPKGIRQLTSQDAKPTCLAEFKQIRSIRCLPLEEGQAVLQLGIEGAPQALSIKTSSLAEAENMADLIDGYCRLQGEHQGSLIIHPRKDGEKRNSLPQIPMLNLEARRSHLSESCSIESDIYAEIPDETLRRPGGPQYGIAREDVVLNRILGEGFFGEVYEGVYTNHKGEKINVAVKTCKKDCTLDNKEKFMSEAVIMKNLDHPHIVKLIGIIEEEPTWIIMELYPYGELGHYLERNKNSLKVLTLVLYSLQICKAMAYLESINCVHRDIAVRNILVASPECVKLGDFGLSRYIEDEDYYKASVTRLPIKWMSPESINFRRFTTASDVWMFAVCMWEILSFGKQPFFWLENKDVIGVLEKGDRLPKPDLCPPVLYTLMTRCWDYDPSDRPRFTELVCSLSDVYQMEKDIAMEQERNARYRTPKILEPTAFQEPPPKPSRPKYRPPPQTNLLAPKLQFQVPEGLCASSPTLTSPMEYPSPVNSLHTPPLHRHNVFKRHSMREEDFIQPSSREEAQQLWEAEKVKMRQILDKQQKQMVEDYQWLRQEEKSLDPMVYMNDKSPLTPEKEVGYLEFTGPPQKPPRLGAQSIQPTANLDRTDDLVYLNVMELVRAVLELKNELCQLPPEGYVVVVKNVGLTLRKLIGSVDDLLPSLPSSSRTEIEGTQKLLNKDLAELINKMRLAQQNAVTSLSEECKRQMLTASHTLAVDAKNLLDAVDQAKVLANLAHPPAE
UniProt O43395: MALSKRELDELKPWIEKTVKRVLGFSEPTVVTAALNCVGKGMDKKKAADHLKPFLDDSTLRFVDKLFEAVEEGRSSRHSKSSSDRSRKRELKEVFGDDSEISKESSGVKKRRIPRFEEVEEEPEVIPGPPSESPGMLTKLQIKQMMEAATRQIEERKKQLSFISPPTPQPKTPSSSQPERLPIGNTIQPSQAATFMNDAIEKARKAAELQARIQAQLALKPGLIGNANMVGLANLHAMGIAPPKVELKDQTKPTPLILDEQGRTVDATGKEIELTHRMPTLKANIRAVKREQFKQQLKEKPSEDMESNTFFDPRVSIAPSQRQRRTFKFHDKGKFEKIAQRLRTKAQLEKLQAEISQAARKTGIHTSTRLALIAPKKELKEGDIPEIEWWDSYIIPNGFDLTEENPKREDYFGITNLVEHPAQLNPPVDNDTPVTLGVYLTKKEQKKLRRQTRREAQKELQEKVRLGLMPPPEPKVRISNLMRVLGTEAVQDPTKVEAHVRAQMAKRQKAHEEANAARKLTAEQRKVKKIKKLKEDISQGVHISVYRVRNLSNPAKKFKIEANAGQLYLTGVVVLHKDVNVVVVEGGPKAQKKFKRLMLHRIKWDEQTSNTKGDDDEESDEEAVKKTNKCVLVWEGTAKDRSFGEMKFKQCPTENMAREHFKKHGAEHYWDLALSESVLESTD

The list shows a part of the results.

Compound in this experiment: COc1ccc(Cn2ccc3ccc(C(=O)NO)cc32)cc1
The experiment is described as follows: dose-dependent thermal stabilisation call (2D-TPP, DLPTP, 10% FDR) (binary (1 = stabilised)); higher = stabilised by the compound. To be noted: system: HL-60 intact cells; concentration range 0.04-10 µM.
Take PRPF4 (UniProt O43172): the “dose-dependent thermal stabilisation call” value is inactive: 0.
The same measure for RAB6A (UniProt P20340): inactive: 0; for RAD23B (UniProt P54727): active: 1.
With RAB7L1 (UniProt O14966) the figure was inactive: 0; with RASA1 (UniProt P20936), inactive: 0; with RAB32 (UniProt Q13637), inactive: 0.
With PSTPIP1 (UniProt O43586) the figure was inactive: 0; with PSMB4 (UniProt P28070), inactive: 0; with PSME3 (UniProt P61289), inactive: 0.
With RAC2 (UniProt P15153), the “dose-dependent thermal stabilisation call” value is inactive: 0.
For RAB3GAP2 (UniProt Q9H2M9), the “dose-dependent thermal stabilisation call” value is inactive: 0.
Turning to RAD23A (UniProt P54725), the “dose-dependent thermal stabilisation call” value was inactive: 0.
With RAB3GAP (UniProt Q15042), the “dose-dependent thermal stabilisation call” value is inactive: 0.
The same measure for PTPN2 (UniProt P17706): inactive: 0; for RANBP3 (UniProt Q9H6Z4): inactive: 0; for RAB20 (UniProt Q9NX57): inactive: 0.
For the target PSMD12 (UniProt O00232), the “dose-dependent thermal stabilisation call” value was inactive: 0.
Take RAB3D (UniProt O95716): the “dose-dependent thermal stabilisation call” value was inactive: 0.
On to RARS2 (UniProt Q5T160), for which the “dose-dependent thermal stabilisation call” value is inactive: 0.
With PSMD2 (UniProt Q13200) the figure was inactive: 0; with RACGAP1 (UniProt Q9H0H5), inactive: 0.
Regarding PSMD14 (UniProt O00487), the “dose-dependent thermal stabilisation call” value is inactive: 0.
As for PSMD3 (UniProt O43242), the “dose-dependent thermal stabilisation call” value is inactive: 0.
As to RAB43 (UniProt Q86YS6), the “dose-dependent thermal stabilisation call” value was inactive: 0.
The same measure for PRPS1 (UniProt P60891): active: 1; for R3HDM1 (UniProt Q15032): inactive: 0; for PSPC1 (UniProt Q8WXF1): inactive: 0.
The same measure for RANBP2 (UniProt P49792): inactive: 0; for QSOX1 (UniProt O00391): inactive: 0; for PSTPIP2 (UniProt Q9H939): inactive: 0.
Take PTK2B (UniProt Q14289): the “dose-dependent thermal stabilisation call” value was active: 1.
With PUS1 (UniProt Q9Y606) the figure was inactive: 0.
PRPF6 (UniProt O94906): the “dose-dependent thermal stabilisation call” value was inactive: 0.
As to PTCD3 (UniProt Q96EY7), the “dose-dependent thermal stabilisation call” value is inactive: 0.
The same measure for PSMB9 (UniProt P28065): inactive: 0; for PRPF3 (UniProt O43395): inactive: 0.
Consider RBM28 (UniProt Q9NW13), for which the “dose-dependent thermal stabilisation call” value is inactive: 0.
